Reference: patent US5242783A, “Photographic material and process” (Eastman Kodak Company, priority 1992, dated 1993)

Test: Hue shifting and release of masking coupler in photographic element, green density at minimum exposure after C-41 processing with and without HAS
Conditions: for Dg at Emin (with HAS): with hydroxylamine sulfate in color developer; for Dg at Emin (w/o HAS): without hydroxylamine sulfate; for extent of deblocking: during the hydroxylamine process

Row | SMILES | Dg at Emin (with HAS) (CS-1 (di-n-butyl phthalate)) | Dg at Emin (w/o HAS) (CS-1 (di-n-butyl phthalate)) | Dg at Emin (with HAS) (CS-2 (2,4-di-tertamylphenol)) | Dg at Emin (w/o HAS) (CS-2 (2,4-di-tertamylphenol)) | extent of deblocking
1 | CCC(C)(C)c1ccc(OCCCCNC(=O)c2cc(Oc3ccc(N=Nc4cc(OC(C)C(=O)O)c5ccccc5c4OC(=O)C4(C)CCCCC4=O)cc3)c3ccccc3c2O)c(C(C)(C)CC)c1 (centres unmarked) [MC-2] | 0.20 | 0.09 | 0.19 | 0.09 | only partially deblocked
2 | CCC(C)(C)c1ccc(OCCCCNC(=O)c2cc(Oc3ccc(N=Nc4cc(OC(C)C(=O)O)c5ccccc5c4O)cc3)c3ccccc3c2O)c(C(C)(C)CC)c1 (centres unmarked) [MC-3] | 0.35 | 0.33 | 0.31 | 0.30 | 
3 | CCC(C)(C)c1ccc(OCCCCNC(=O)c2cc(Oc3ccc(N=Nc4cc(OC(C)C(=O)O)c5ccccc5c4OC(=O)C4(C)CN(C(=O)N(C)c5ccccc5)CCC4=O)cc3)c3ccccc3c2O)c(C(C)(C)CC)c1 (centres unmarked) [MC-1] | 0.32 | 0.09 | 0.35 | 0.09 | quantitatively deblocked
